Laboratory results: the supplement of paper PMC8090911
Structures can show the parent of a compound that is named as a salt. The list shows a part of the results. Many values rest on one well or one pass, so single values are uncertain.

The compounds below were run on p95-ErbB2-MCF7 (assay: perinuclear lysosome accumulation (PNLA, size of LAMP2 puncta), robust Z-score vs plate median; higher = more perinuclear lysosome accumulation (reversal of invasive lysosome distribution)). Settings: 5 µM; 24 h.

Compound | perinuclear lysosome accumulation
Cc1nccc2c1[nH]c1ccccc12 [Harmane hydrochloride] | -1.84
CC[C@@H](C(N)=O)N1CCCC1=O [Levetiracetam] | 0.111
O=C(O)CCCc1ccc(N(CCCl)CCCl)cc1 [Chlorambucil] | 0.235
COc1ccc(C(=O)N2CCCC2=O)cc1 [Aniracetam] | 0.382
C[C@]12CCC(=O)C=C1CC[C@@H]1[C@@H]2C(=O)C[C@]2(C)C(=O)CC[C@@H]12 [Adrenosterone] | 0.393
C[N+]1(C)CCOC(O)(c2ccc(-c3ccc(C4(O)C[N+](C)(C)CCO4)cc3)cc2)C1 (stereo unspecified) [Hemicholinium bromide] | -0.278
C[CH2][Hg][S]c1ccccc1C(=O)[O-].[Na+] [Thimerosal] | -0.127
CCN[C@@H](C)Cc1cccc(C(F)(F)F)c1 [Dexfenfluramine hydrochloride] | 0.461
COc1ccc2[nH]c3c(c2c1)CCN=C3C [Methoxy-6-harmalan] | -0.0901
C[N+]1(C)[C@@H]2CC[C@H]1C[C@@H](OC(=O)C(CO)c1ccccc1)C2 (stereo partly specified) [Methylatropine nitrate] | 0.0246
CN1C[C@H](C(=O)N[C@]2(C)O[C@@]3(O)[C@@H]4CCCN4C(=O)[C@H](Cc4ccccc4)N3C2=O)C[C@@H]2c3cccc4[nH]cc(c34)C[C@H]21 [Dihydroergotamine tartrate] | 0.657
C[N+](C)(C)CCCCCCCCCC[N+](C)(C)C [Decamethonium bromide] | 0.253
c1ccc2nc(N3CCNCC3)ccc2c1 [Quipazine dimaleate salt] | 1.65
CC(CCc1ccccc1)NC(C)C(O)c1ccc(O)cc1 (stereo unspecified) [Nylidrin] | -2.22
COc1cccc(C2(O)CCCCC2CN(C)C)c1 (stereo unspecified) [Tramadol hydrochloride] | 0.253
CC[C@@]1(O)C(=O)OCc2c1cc1n(c2=O)Cc2cc3ccccc3nc2-1 [Camptothecine (S,+)] | 0.0755
CCC(=O)O[C@@](Cc1ccccc1)(c1ccccc1)[C@@H](C)CN(C)C [Levopropoxyphene napsylate] | 1.28
CCCN1C[C@H](CSC)C[C@@H]2c3cccc4[nH]cc(c34)C[C@H]21 [Pergolide mesylate] | 0.104
CCC(C)C1O[C@]2(C=C[C@@H]1C)C[C@@H]1CC(C/C=C(\C)[C@@H](OC3C[C@H](OC)[C@@H](OC4C[C@H](OC)[C@@H](O)[C@H](C)O4)[C@H](C)O3)[C@@H](C)/C=C/C=C3\COC4[C@H](O)C(C)=CC(C(=O)O1)[C@]34O)O2 (stereo partly specified) [Avermectin B1a] | 4.48
C[C@]12CC[C@H]3[C@@H](CCC4=CC(=O)CC[C@@H]43)[C@@H]1CC[C@@H]2O [Nandrolone] | -2.31
COc1ccc(CN2CCNCC2)c(OC)c1OC [Trimetazidine dihydrochloride] | 0.0971
CN1[C@@H]2CC[C@H]1C[C@@H](OC(=O)[C@H](CO)c1ccccc1)C2 [Hyoscyamine (L)] | -1.62

An excerpt from above in order of length of the SMILES, high to low:
Compound | perinuclear lysosome accumulation
C[N+]1(C)[C@@H]2CC[C@H]1C[C@@H](OC(=O)C(CO)c1ccccc1)C2 (stereo partly specified) [Methylatropine nitrate] | 0.0246
C[N+](C)(C)CCCCCCCCCC[N+](C)(C)C [Decamethonium bromide] | 0.253
CCN[C@@H](C)Cc1cccc(C(F)(F)F)c1 [Dexfenfluramine hydrochloride] | 0.461

The list goes on.

Compound | perinuclear lysosome accumulation
C[C@H](N)[C@H](O)c1ccc(O)c(O)c1 [Levonordefrin] | -0.0462
CC(C)N(CCC(C(N)=O)(c1ccccc1)c1ccccn1)C(C)C (stereo unspecified) [Disopyramide] | -1.24
O=[N+]([O-])O[C@@H]1CO[C@H]2[C@@H]1OC[C@@H]2O [Isosorbide mononitrate] | -1.21
C[C@]12CC[C@@H](O)C[C@@H]1CC[C@@H]1[C@@H]2CC[C@]2(C)C(=O)CC[C@@H]12 [Androsterone] | -3.24
CNCC(O)c1ccc(O)cc1 (racemic) [(+,-)-Synephrine] | -0.0425
C1CCc2nnnn2CC1 [Pentylenetetrazole] | -1.7
C=C1[C@@H]2CC[C@H]3[C@]4(C)C[C@H](O[C@@H]5O[C@H](CO)[C@@H](OS(=O)(=O)O)[C@H](OS(=O)(=O)O)[C@H]5OC(=O)CC(C)C)C[C@@H](C(=O)O)[C@H]4CC[C@]3(C2)[C@@H]1O [Atractyloside potassium salt] | -0.51
CC(Cc1ccc(O)cc1)NCC(O)c1cc(O)cc(O)c1 (stereo unspecified) [Fenoterol hydrobromide] | -0.249
CC1=NCCc2c1[nH]c1cc(O)ccc21 [Harmalol hydrochloride dihydrate] | -0.849
COc1ccc2c(c1)[C@]13CCCC[C@@H]1[C@H](C2)N(C)CC3 [Dextromethorphan hydrobromide monohydrate] | 0.494
S=C(NC1CCCCC1)N1CCC(c2cnc[nH]2)CC1 [Thioperamide maleate] | -0.558
CC(C)CC(N(C)C)C1(c2ccc(Cl)cc2)CCC1 (stereo unspecified) [Sibutramine HCl] | -0.0913
C#C[C@]1(O)CC[C@H]2[C@@H]3CCC4=CC(=O)CC[C@]4(C)[C@H]3CC[C@@]21C [Ethisterone] | 0.543
CC(C)[N+](C)(CCC(C(N)=O)(c1ccccc1)c1ccccc1)C(C)C [Isopropamide iodide] | 1.06
O=C([O-])c1ccccc1-c1c2cc(Br)c(=O)cc-2oc2[c]([Hg+])c([O-])c(Br)cc12.[Na+].[Na+].[OH-] [Merbromin] | 0.681
O=c1[nH]c2ccccc2n1CCCN1CCC(n2c(=O)[nH]c3cc(Cl)ccc32)CC1 [Domperidone] | -0.336
CN1CCC2(C)c3cc(O)ccc3N(C)C12 (single isomer, unassigned; (-)) [(-)-Eseroline fumarate salt] | -1.98
CC(NC(C)(C)C)C(=O)c1cccc(Cl)c1 (stereo unspecified) [Bupropion hydrochloride] | 1.5
CN[C@@H]1[C@@H](O)[C@@H](O[C@@H]2[C@@H](O)[C@H](O[C@H]3O[C@H](CN)CC[C@H]3N)[C@@H](N)C[C@H]2N)OC[C@]1(C)O.CN[C@@H]1[C@@H](O)[C@@H](O[C@@H]2[C@@H](O)[C@H](O[C@H]3O[C@H]([C@@H](C)N)CC[C@H]3N)[C@@H](N)C[C@H]2N)OC[C@]1(C)O.CN[C@@H]1[C@@H](O)[C@@H](O[C@@H]2[C@@H](O)[C@H](O[C@H]3O[C@H]([C@@H](C)NC)CC[C@H]3N)[C@@H](N)C[C@H]2N)OC[C@]1(C)O [Gentamicine sulfate] | -0.742
O=C1CC[C@@]2(O)[C@H]3Cc4ccc(O)c5c4[C@@]2(CCN3CC2CC2)[C@H]1O5 [Naltrexone hydrochloride dihydrate] | -0.164
N[C@@H]1C[C@H]1c1ccccc1 [Tranylcypromine hydrochloride] | 0.521
NCC(CC(=O)O)c1ccc(Cl)cc1 (racemic) [Baclofen (R,S)] | 0.0455

Two of the compounds above, tab-delimited:
Compound	perinuclear lysosome accumulation
C#C[C@]1(O)CC[C@H]2[C@@H]3CCC4=CC(=O)CC[C@]4(C)[C@H]3CC[C@@]21C [Ethisterone]	0.543
CC(C)[N+](C)(CCC(C(N)=O)(c1ccccc1)c1ccccc1)C(C)C [Isopropamide iodide]	1.06

The list goes on:

Compound | perinuclear lysosome accumulation
C#C[C@]1(O)CC[C@H]2[C@@H]3CCC4=CC(=O)CCC4=C3C=C[C@@]21CC [Gestrinone] | 0.165
CN1[C@@H]2C[C@@H](OC(=O)[C@H](CO)c3ccccc3)C[C@H]1[C@@H]1O[C@@H]12 [Scopolamine hydrochloride] | -0.448
C(#CCN1CCCC1)CN1CCCC1 [Tremorine dihydrochloride] | -1.57
C[C@]12CCC(=O)C=C1C=C[C@@H]1[C@@H]2CC[C@@]2(C)[C@H]1CC[C@@]2(O)CCC(=O)O [Canrenoic acid potassium salt] | -1.79
C=CCN1CC[C@]23c4c5ccc(O)c4O[C@H]2C(=O)CC[C@@]3(O)[C@H]1C5 [Naloxone hydrochloride] | 0.0811
CCCC(C)C1(CC)C(=O)NC(=O)NC1=O (stereo unspecified) [Pentobarbital] | -0.914
COP(=O)(OC)C(O)C(Cl)(Cl)Cl (stereo unspecified) [Trichlorfon] | -0.104
C[C@]12C[C@H]3S[C@H]3C[C@@H]1CC[C@@H]1[C@@H]2CC[C@]2(C)[C@@H](O)CC[C@@H]12 [Epitiostanol] | -0.682
CC(=O)O[C@H]1C[C@@H]2CC[C@@H]3[C@H](CC[C@@]4(C)[C@H]3C[C@H]([N+]3(C)CCCCC3)[C@@H]4OC(C)=O)[C@@]2(C)C[C@@H]1[N+]1(C)CCCCC1 [Pancuronium bromide] | 0.101
O=c1c2ccccc2[se]n1-c1ccccc1 [Ebselen] | 1.73
CC[N+]1(C)CCCC(OC(=O)C(O)(c2ccccc2)c2ccccc2)C1 (stereo unspecified) [Pipenzolate bromide] | 1.24
CCCCCC[C@H]1C(=O)O[C@H](C)[C@H](NC(=O)c2cccc(NC=O)c2O)C(=O)O[C@@H](C)[C@@H]1OC(=O)CC(C)C [Antimycin A] | -1.82
c1ccc2c(c1)OCC(C1=NCCN1)O2 (stereo unspecified) [Idazoxan hydrochloride] | 0.0203
COc1cc2c(c(OC)c1OC)-c1ccc(OC)c(=O)cc1[C@@H](NC(C)=O)CC2 [Colchicine] | 3.93
Oc1ccc2c3c1O[C@H]1[C@@H](O)CC[C@@]4(O)[C@@H](C2)N(CC2CCC2)CC[C@]314 [Nalbuphine hydrochloride] | -0.337
CN1C[C@H](CNC(=O)OCc2ccccc2)C[C@@H]2c3cccc4c3c(cn4C)C[C@H]21 [Metergoline] | 0.711
CC(=O)O[C@H]1CC[C@@]2(C)C(=CC[C@@H]3[C@@H]2CC[C@]2(C)C(=O)CC[C@@H]32)C1 [Dehydroisoandosterone 3-acetate] | 0.335
O=C(NCNC(=O)NC1C(=O)NC(=O)N1CO)NC1C(=O)NC(=O)N1CO (stereo unspecified) [Imidurea] | -2.77
C[C@]12CC[C@H](O)C[C@H]1CC[C@@H]1[C@@H]2CC[C@]2(C)[C@@H](C3=CC(=O)OC3)CC[C@]12O [Digitoxigenin] | 0.605
CC(C)c1cccc(C(C)C)c1O [Propofol] | -3.44
CCOC(=O)c1cncn1[C@H](C)c1ccccc1 [Etomidate] | 1.29
CC(O)(CS(=O)(=O)c1ccc(F)cc1)C(=O)Nc1ccc(C#N)c(C(F)(F)F)c1 (stereo unspecified) [Bicalutamide] | 1.89
